Results reported in PubChem BioAssay AID2685 (National Center for Advancing Translational Sciences (NCATS), 2010).
The list shows a part of the results. Shown are side measurements of this screen, not its main read-out; they come without a call. Compounds called inactive in the main read-out are mostly missing here. Potencies come from curve fits of mixed quality, noted in brackets. Where a SMILES comes first, the peptide text is derived from it. The star is where a group is joined. Boc = CC(C)(C)OC(=O)*; Bn = c1ccc(C*)cc1

Test: qHTS Assay for Lipid Storage Modulators in Drosophila S3 Cells;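 on cell number change: cells counted by Cell Tracker Red CMTPX staining in the red channel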
Settings: BODIPY lipid droplet fluorescence, 18-24 h; for cell number change: measured here: cell count max response, cells fed with added oleic acid
Summary of the method: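 Drosophila S3 cells loaded with oleic acid (400 uM, as added) and compounds at several concentrations; lipid droplets imaged by 488-nm laser-scanning cytometry, 500–530 nm intensity and object ratio to cell channel. Percent activity normalized to 20 uM Triacsin C.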

[1] = measured here: cell number channel AC50, cells fed with added oleic acid
[2] = measured here: lipid fluorescence (Fed channel) AC50, cells fed with added oleic acid

With `COC(=O)c1c(NC(=O)C2CC(=O)NN2Cc2ccccc2)sc(C)c1C` (stereo not drawn) the cell number change was -68.2%, the AC50 [1] was 8.2 µM [falling, partial curve] and the AC50 [2] was 5.8 µM [falling, partial curve].
Compound `NC(=O)COC(=O)c1cc(-c2cccs2)nn1-c1ccccc1` has a cell number change of 27.8%.
With `CCOc1ccc(S(=O)(=O)NCC2(N3CCCCC3)CCCCC2)cc1` the cell number change was -0.5%.
With `CS(=O)(=O)N(CC(=O)N1CCCCCC1)c1cc(Cl)ccc1Cl` the cell number change was 20.5%.
In the case of `CCOC(=O)c1cnc2c(C)cccc2c1NCCc1ccc(OC)c(OC)c1`, the cell number change is reported as 46.1%, the AC50 [1] is reported as 0.82 µM [rising, full curve] and the AC50 [2] is reported as 0.731 µM [rising, full curve].
For `O=C(N=C1SC2CS(=O)(=O)CC2N1Cc1ccc(F)cc1)C1CC1` (stereo not drawn), the cell number change was -3.98% and the AC50 [2] was 6.51 µM [rising, single point].
For `O=C(c1cn(Cc2ccccc2)nc1-c1cccnc1)N1CCN(Cc2c(F)cccc2Cl)CC1`, the cell number change was -16.7% and the AC50 [2] was 29.1 µM [falling, single point].
Compound `Cc1ccc(N2CCN(CCc3nc4cc(NC(=O)c5ccco5)ccc4n3C)CC2)cc1` has a cell number change of 23.9%.
Compound `Cc1cc(C)nc(NC2=NC3CCCCC3N2)n1` (stereo not drawn) has a cell number change of 1.17%.
In the case of `O=C(Nc1cccc(S(=O)(=O)NC2=NCCC2)c1)c1ccc(OC(F)F)cc1`, the cell number change is reported as -37.9% and the AC50 [2] is reported as 3.26 µM [falling, single point].
In the case of `COc1ccc(CCNC(=O)CCNC(=O)c2ccccc2Cl)cc1`, the cell number change is reported as 18.1% and the AC50 [1] is reported as 6.51 µM [rising, partial curve, poor fit].
With `COc1ccc(-c2csc(NC(=O)C3CC(=O)N(Cc4ccco4)C3)n2)cc1` (stereo not drawn) the cell number change was 3% and the AC50 [1] was 2.06 µM [rising, single point].
For `Cc1ccccc1NC(=S)N(Cc1ccccc1)Cc1cccnc1`, the AC50 [1] was 5.17 µM [rising, partial curve].
For `CC(C)(C)c1ccc(C(=O)NCCC(=O)N2CCN(c3ncccn3)CC2)cc1`, the AC50 [2] was 0.731 µM [falling, full curve].
With `COc1ccccc1NC(=O)C1CCCN(S(=O)(=O)c2ccccc2)C1` (stereo not drawn) the AC50 [2] was 4.11 µM [falling, full curve].
With `CC(C)CC(NC(=O)C(NC(=O)C(Cc1ccc(OCc2ccccc2)cc1)NC(=O)OC(C)(C)C)C(C)C)C(N)=O` (stereo not drawn) (Boc-Tyr(Bn)-Val-Leu-NH2; configuration not given here) the cell number change was -34.1%, the AC50 [1] was 29.1 µM [falling, single point] and the AC50 [2] was 16.4 µM [falling, single point].
With `C[C@]12CCC(=O)C=C1C=C[C@@H]1[C@@H]2CC[C@@]2(C)[C@H]1CC[C@@]21CCC(=O)O1` the cell number change was 12.8% and the AC50 [2] was 18.4 µM [rising, single point].
For `C/C(N)=C(/C#N)C(=O)COc1ccc(Cl)cc1Cl`, the cell number change was -36.5% and the AC50 [1] was 29.1 µM [falling, single point].
In the case of `COCCN1CCc2c(C)nc3c(-c4ccc(OC)c(OC)c4)cnn3c21`, the cell number change is reported as -14.9% and the AC50 [2] is reported as 29.1 µM [falling, single point].
Work on `COc1ccc(CN(Cc2nc3ccccc3c(=O)[nH]2)C(=O)c2ccco2)cc1` yielded a cell number change of -2.1%.
`O=C(c1ccc2c(=O)n(CCc3ccccc3)c(=O)[nH]c2c1)N1CCN(c2ccccc2)CC1` showed a cell number change of 3.42%.
In the case of `COc1ccc(OC)c(/C=C/C(=O)OCC(=O)c2c(N)n(C)c(=O)n(C)c2=O)c1`, the cell number change is reported as 95.5%, the AC50 [1] is reported as 1.84 µM [falling, single point] and the AC50 [2] is reported as 6.51 µM [falling, partial curve, poor fit].
In the case of `COC(=O)c1ccc(C(=O)OC)c(NC(=S)N2CCOCC2)c1`, the AC50 [2] is reported as 29.1 µM [falling, single point].
For `CCCCNC(=O)CCNS(=O)(=O)c1ccc(C)cc1`, the cell number change was 17.7% and the AC50 [2] was 0.0291 µM [falling, full curve, poor fit].
With `Cc1cccc(C(=O)NCCCNC(=O)c2ccccn2)c1` the cell number change was 1.28% and the AC50 [2] was 5.17 µM [falling, single point].
With `COc1cc(C(=O)NCCC(=O)NC2CCCCC2)cc(OC)c1OC` the cell number change was 47.9% and the AC50 [1] was 29.1 µM [rising, single point].
In the case of `CN(C)/C=N/c1nc2nccc(-c3ccc(Cl)cc3)n2n1`, the cell number change is reported as -66.1%, the AC50 [1] is reported as 11.6 µM [falling, partial curve, poor fit] and the AC50 [2] is reported as 29.1 µM [falling, single point].
For `Cc1ccc(NC(=O)C2CC2C)c(Cl)c1` (stereo not drawn), the AC50 [2] was 2.06 µM [falling, partial curve].
With `COCCNC(=O)CC(NS(=O)(=O)c1ccc(C)cc1)c1ccco1` (stereo not drawn) the cell number change was -26.2% and the AC50 [2] was 0.92 µM [falling, partial curve].
In the case of `CCOc1cc(C2C(C(=O)OC(C)C)=C(C)N=C3SCCC(=O)N32)ccc1OC(C)=O` (stereo not drawn), the AC50 [1] is reported as 1.84 µM [rising, partial curve, poor fit].
In the case of `CCOC(=O)[C@H]1[C@H]2COc3ccc(Cl)cc3[C@@H]2N2C(=O)CN(Cc3ccc(OC)cc3)C(=O)[C@@]12C`, the cell number change is reported as -10.8% and the AC50 [2] is reported as 18.4 µM [falling, single point].
For `C=CCNc1nc2ccccc2nc1NS(=O)(=O)c1cccs1`, the cell number change was 33.3%, the AC50 [1] was 1.46 µM [rising, full curve] and the AC50 [2] was 0.58 µM [rising, single point].
With `CCn1cc([N+](=O)[O-])c(C(=O)N2CCCC2)n1` the AC50 [2] was 20.6 µM [falling, partial curve].
In the case of `CCn1nc(C)c(NS(=O)(=O)c2ccccc2)c1C`, the AC50 [1] is reported as 6.51 µM [falling, single point] and the AC50 [2] is reported as 5.8 µM [falling, single point].
With `COc1ccccc1OCc1ccc(C(=O)N/N=C/c2ccco2)cc1` the AC50 [2] was 2.91 µM [rising, single point].
For `Cc1ccc(NC(=O)C2CCN(S(=O)(=O)c3ccccc3)CC2)cc1`, the cell number change was -23.8% and the AC50 [2] was 8.2 µM [falling, partial curve].
In the case of `CCCCC(=O)Nc1nn(C)c2nc3c(C)cccc3cc12`, the cell number change is reported as -27.4% and the AC50 [2] is reported as 10.3 µM [falling, partial curve].
In the case of `O=C(CCc1ccccc1)NNc1ccc(F)cc1`, the cell number change is reported as -2.91%, the AC50 [1] is reported as 6.51 µM [falling, single point] and the AC50 [2] is reported as 6.51 µM [falling, single point].
